Measurements reported in patent US8530491B2, “Antimalarial compounds with flexible side-chains” (Medicines for Malaria Venture (MMV), priority 2007, dated 2013).

Test system: African green monkey kidney fibroblast (Vero) cells
Experiment: Cytotoxicity in mammalian cells
Type: cell-based
Settings: for IC50 ratio Vero/TM4: Vero IC50 / P. falciparum TM4 IC50; for IC50 ratio Vero/V1/S: Vero IC50 / P. falciparum V1/S IC50

Structure (SMILES) | IC50 ratio Vero/TM4 | IC50 ratio Vero/V1/S
CCc1nc(N)nc(N)c1OCCCOc1ccccc1CCC(=O)O [Compound P218, 2,4-diamino-6-ethyl-5-(3-(2-(2-carboxyethyl)phenoxy)propoxy)pyrimidine] | >1620 | –
CCc1nc(N)nc(N)c1OCCCOc1cc(C)nc2cc(F)ccc12 [Compound P157, 2,4-diamino-6-ethyl-5-(3-(7-fluoro-2-methylquinolin-4-yloxy)propoxy)pyrimidine] | 42 | 3
CCc1nc(N)nc(N)c1OCCCOc1ccnc2ccc(F)cc12 [Compound P153, 2,4-diamino-6-ethyl-5-(3-(6-fluoro-quinolin-4-yloxy)propoxy)pyrimidine] | 149 | 8
CCOC(=O)CCCOc1ccccc1OCCCOc1c(N)nc(N)nc1CC [Compound P217, 2,4-diamino-6-ethyl-5-(3-(2-(3-ethoxycarbonylpropoxy)phenoxy)propoxy)pyrimidine] | 1380 | –
CCOC(=O)CCc1ccccc1OCCCOc1c(N)nc(N)nc1CC [Compound P195, 2,4-diamino-6-ethyl-5-(3-(2-(2-ethoxycarbonylethyl)phenoxy)propoxy)pyrimidine] | 500 | 18
CCc1nc(N)nc(N)c1OCCCOc1ccccc1OCCCC(=O)O [Compound P135, 2,4-diamino-6-ethyl-5-(3-(2-(3-carboxypropoxy)phenoxy)propoxy)pyrimidine] | >6000 | >260
CCc1nc(N)nc(N)c1OCCCOc1cc(C)nc2ccccc12 [Compound P154, 2,4-diamino-6-ethyl-5-(3-(2-methylquinolin-4-yloxy)propoxy)pyrimidine] | 38 | 4
CCc1nc(N)nc(N)c1OCCCOc1ccnc2ccccc12 [Compound P113, 2,4-diamino-6-ethyl-5-(3-(quinolin-4-yloxy)propoxy)pyrimidine] | 32 | 2
CCc1nc(N)nc(N)c1OCCCOc1cc(C)nc2ccc(OCCCC(=O)O)cc12 [Compound P169, 2,4-diamino-6-ethyl-5-(3-(6-(3-carboxypropoxy)-2-methylquinolin-4-yloxy)propoxy)pyrimidine] | 1405 | 134
